In the assay the target is EGFP-MR (human mineralocorticoid receptor, full length) (human) (UniProt P08235). Briefly: co-IP; EGFP-MR or EGFP-MR^CDEF precipitated with anti-GFP-coupled magnetic beads and µ columns (Miltenyi) from whole cell lysates of transfected HEK cells; immunoblot of endogenous CK2α, CK2α' and CK2β; cells treated with vehicle, aldosterone (10 nM, 1 h) or geldanamycin (2 µM, 2 h); EGFP alone as control.

Sequences of proteins named here, by UniProt entry; tags and fusion partners are left off.
UniProt P08235: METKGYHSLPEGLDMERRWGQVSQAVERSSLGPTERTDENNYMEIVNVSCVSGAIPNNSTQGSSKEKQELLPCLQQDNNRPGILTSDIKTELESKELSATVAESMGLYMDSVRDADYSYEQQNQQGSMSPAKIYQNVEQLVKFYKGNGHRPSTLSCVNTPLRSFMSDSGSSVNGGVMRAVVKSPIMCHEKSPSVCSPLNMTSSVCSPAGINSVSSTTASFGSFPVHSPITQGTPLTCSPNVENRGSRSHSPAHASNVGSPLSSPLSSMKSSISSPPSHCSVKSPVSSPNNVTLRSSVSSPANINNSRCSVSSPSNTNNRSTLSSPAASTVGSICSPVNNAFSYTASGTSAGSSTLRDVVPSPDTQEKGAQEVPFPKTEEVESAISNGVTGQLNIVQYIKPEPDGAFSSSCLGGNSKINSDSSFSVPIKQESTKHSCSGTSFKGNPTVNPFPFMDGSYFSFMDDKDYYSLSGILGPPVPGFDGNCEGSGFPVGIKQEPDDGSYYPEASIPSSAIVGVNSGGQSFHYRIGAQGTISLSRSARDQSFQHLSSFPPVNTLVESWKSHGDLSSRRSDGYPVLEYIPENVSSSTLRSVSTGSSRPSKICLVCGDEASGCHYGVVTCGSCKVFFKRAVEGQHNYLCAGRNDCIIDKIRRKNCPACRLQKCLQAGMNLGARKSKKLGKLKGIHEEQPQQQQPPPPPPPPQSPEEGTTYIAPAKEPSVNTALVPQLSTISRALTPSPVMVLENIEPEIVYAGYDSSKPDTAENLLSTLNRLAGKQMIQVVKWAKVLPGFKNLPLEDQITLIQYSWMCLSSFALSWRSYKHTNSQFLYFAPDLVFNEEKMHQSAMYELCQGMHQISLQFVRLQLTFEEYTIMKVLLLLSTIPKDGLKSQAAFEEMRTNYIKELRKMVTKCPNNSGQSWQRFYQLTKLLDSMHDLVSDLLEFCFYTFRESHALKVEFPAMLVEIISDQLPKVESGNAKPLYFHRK

No constants are given. Whether binding was seen depends on the method and setting. In cells and extracts the contact can be indirect. Some binding calls cover weakened binding; strength is not graded here.

As for “Casein kinase 2 catalytic subunit alpha' (CK2α') (from UniProt P19784 1-350) (enzyme)”, the binding entry is given as “binds”.
